According to the supplement of paper PMC8728848:
The other results are listed elsewhere or left out.

Molecular target: Neu5Gc(b2-6)Gal(b1-4)GlcNAc
Assay: glycan array binding signal (z-score within array); higher = stronger binding
Conditions: glycan notation: IUPAC condensed, linker removed
How it was run: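 Arrays were curated from the Consortium for Functional Glycomics database, 3228 in total, and kept only where the protein sequence was available. Binding is expressed as a within-array Z-score. This score was averaged across arrays of the same protein sequence at different concentrations or buffers and across linkers, and negative values can be read as non-binding.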

B1: Pwp7 (Candida glabrata) (protein)
chain: MGSSHHHHHHSSGLVPRGSHMASKNPVDFPNLCQYPNLDGAVAGFDTEIYNADPSILINFSLWPILQFPKEWHKTIGRAITTQTNFKLPASDTTLFGVSIPTQNILIEFRGYFIPPKSGTYTFALYLTDDGSAMFLGNDAAFPCGNITSWSNPTNDQVSVSDYDPKKKTLTVYMVAGVAYPLRIAYYNREKGGSLTASFVDPDGLTHSDWNGYIWTLPSCDNCKYS
  glycan array binding signal (z-score): -0.407
